Source: patent publication US12697353B2, “Compositions comprising cinnamaldehyde and zinc and methods of using such compositions” (SOCIÉTÉ DES PRODUITS NESTLÉ S.A., priority 2015, dated 2026)

Test: comparative taste testing in human subjects
Assay type: in vivo
Conditions: 4.8 ppm capsaicin or 350 ppm cinnamaldehyde, FIG. 9

| SMILES | participants who judged the taste intense to very intense [%] |
| --- | --- |
| COc1cc(CNC(=O)CCCC/C=C/C(C)C)ccc1O [capsaicin, reference compound] | 87.9 |
| O=CC=Cc1ccccc1 [cinnamaldehyde] | 20.5 |
